# For at least one compound, name, drawing or mass did not settle the structure.
# System: Patient-derived cell line RN1 (MGMT unmethylated GBM)
# Assay: Efficacy in balb/c nude mice harboring intracranial patient-derived glioblastoma (RN1), Kaplan-Meier survival
# Conditions: TMZ 10 mg/kg
# Description: Patient-derived cell line RN1 (2 μL) was intra-cranially injected into balb/c nude mice.
# 6-8 week old balb/c nude mice were used. All procedures, except autopsies, were carried out within a laminar flow cabinet. Tumors were induced following the procedure disclosed in Wakimoto H. et al. (2012) Neuro Oncol. 14(2): 132-44. Balb/c nude mice were weighed and held in groups of four. The mice received an analgesic 2 hours prior to primary human tumor cell implantation—the mice were injected subcutaneously with 5 mg/kg Rimadyl (Carprofen). The animals were anesthetized via continuous mask inhalation of isoflurane (2.5-3%, 1 L/min oxygen for induction and 1-2.5%, 0.2 L/min oxygen for maintenance). The depth of anesthesia was assessed by toe pinch reflex (leg withdrawal) before the procedure began (cf. monitoring sheet #1).
# A 2 mm drill hole was made at the stereotactically in the right caudate putamen using the coordinates 1 mm anterior, 1.5 mm lateral, and 3.0 mm below the bregma. […]
# At this particular time, animals were carefully monitored (twice daily) as neurological decline can occur rapidly. […] Neurological decline was scored (cf. monitoring sheet #3) for each animal. […]
compound,measurement,value
"Cn1nnc2c(C(N)=O)ncn2c1=O [TMZ, temozolomide]",survival compared with control mice,survival advantage

# Reference: patent US11446283B2, “Methods and dosing regimens using ibudilast and a second agent for cancer therapy” (MediciNova, Inc., priority 2018, dated 2022)
